# Experimental data from the supplement of paper PMC8728848.
# This is one part of the list.
# B1: Awp3 (Candida glabrata), B4UN32 (protein)
# chain: MISFVTLLAILGLLSISWADQTVRSVAGDQRVTDPVIVGDNSILDYYGGSNYDFSNNFEIGRGTLYIGKESYFSSFQSAPTDVPNSFHLLIKNTNNLQNNGQFIIENIKRHANQCSNSSIQVFPINFQNDGEFEIISGGVEGRCCLPTSVIAPQNFLNNGKFYYKVLTDTGSIYSGSCMQNVDIGASTTTTVNNNLWEFTGSINAQINGAVSGAAQINLDGSNMFVNANTFSGQVVNLINGGSFLQTSDPLSNIVVINGLGTSDTGVTSIAVKGKGKSFTYNPSSGIVKLTTVEGKTYAYQIGCGYNTKKFITNNDSGASYESADNFFVLTYSEPYSPQTCQLENSSIFSSNFISTSTSSSSSSSSASSLPSSMSSSLPSSLSSSLSSSLSSSMSSSMSSLFIIPPPYTTTRSSGSSIIDTEIVSFYSTTDSPGHTITGTTTTTLYGPHTHSSVSTPSSSSESSTTSNSSIESSSLPHTSVSSTPESSITPSSNTISSSPTSDFSSVQSSSIMESSSVVASSSVINSSSIVDSSSSSASSLPSSMSSSLSSSMSSSLPSSMSSSLSSSLSSSLSSSMSSSMSSLFIIPPPYTTTRSSGSSIIDTEIVSFYSTTDSPGHTITGTTTTTLYGPHTHSSVSTPSSSSESSTTSNSSIESSSLPHTSVSSTPESSITPSSNTISSSPTSDFSSVQSSSIMESSSVVASSSVINSSSIVDSSSSSASSLPSSMPSSLPSSMSSSLSSSMSSSLSSSLSSSLSSSMSSSMSSLFIIPPPYTTTRSSGSSIIDTEIVSFYSTTDSPGHTITGTTTTTLYGPHTHSSVSTPSSSSESSTTSNSSIESSSLPHTSVSSTPESSITPSSNTISSSPTSDFSSVQSSSIMESSSVVASSSATQSSSVINSSSIVDSSSSSASSLPSSMPSSLPSSLSSSLSSSLSSSMSSSMSSLFIIPPPYTTTRSSGSSIIDTEIVSFYSTTDSPGHTITGTTTTTLYESSIYSSSSSTIQESELSNTSRTTMTSNSSVSISSTSSRSSFSNTKSSTIVISQSASLPDSKTDIILSTSSNIGYSSRSLLSDLGTSISDSDIHHSVLHSTESYSSNESGTNPFTSIASLSNFIPESSSHTSTALGSENSVISSDILTTMSHPVATNSGDKPTTPKRSEQVSTTMTSSGPTPDTSSFDTDGMSAYSRPEFTTNSLEVNKSSTSQLGNNKQTFSNLQLESTRPHSENEVDNNTRLLQSIQQSSTYGTNNVNPLSPTGSISIPLTEDGQGDNNNWNSPATNDLCTQISFNLTATTITVTDRITITDSIHDISSEVITSYIYQTIVDQKTVTQTVDGKSLANKMSSIPKPSSRSLIQPQPPVAIELQEGAASTSRVSLVSLFISIILVLL
# Assays:
# Assay in all cases: glycan array binding signal (z-score within array); higher = stronger binding
# Settings in all cases: glycan notation: IUPAC condensed, linker removed
# [1] = target: Fuc(a1-2)[Gal(a1-3)]Gal(b1-3)GlcNAc(b1-2)Man(a1-3)[Fuc(a1-2)[Gal(a1-3)]Gal(b1-3)GlcNAc(b1-2)Man(a1-6)]Man(b1-4)GlcNAc(b1-4)GlcNAc
# In short: (§1)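 Columns mapping to the same glycan were averaged after glycan names were converted to IUPAC-condensed notation. The data come from 3228 arrays in the Consortium for Functional Glycomics database, limited to those with an available protein sequence. Binding is reported as a within-array Z-score averaged across arrays of one protein sequence and across linkers.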
# [2] = target: Fuc(a1-2)[Gal(a1-3)]Gal(b1-3)GlcNAc(b1-2)Man(a1-3)[Fuc(a1-2)[Gal(a1-3)]Gal(b1-3)GlcNAc(b1-2)Man(a1-6)]Man(b1-4)GlcNAc(b1-4)[Fuc(a1-6)]GlcNAc
# In short: as §1
# [3] = target: Fuc(a1-2)[Gal(a1-3)]Gal(b1-3)GlcNAc(b1-3)GalNAc
# In short: as §1
# [4] = target: Fuc(a1-2)[Gal(a1-3)]Gal(b1-3)GlcNAc(b1-6)GalNAc
# In short: as §1
# [5] = target: Fuc(a1-2)[Gal(a1-3)]Gal(b1-4)Glc
# In short: as §1
# [6] = target: Fuc(a1-2)[Gal(a1-3)]Gal(b1-4)GlcNAc
# In short: as §1
# [7] = target: Fuc(a1-2)[Gal(a1-3)]Gal(b1-4)GlcNAc(b1-2)Man
# In short: as §1
# [8] = target: Fuc(a1-2)[Gal(a1-3)]Gal(b1-4)GlcNAc(b1-2)Man(a1-3)[Fuc(a1-2)[Gal(a1-3)]Gal(b1-4)GlcNAc(b1-2)Man(a1-6)]Man(b1-4)GlcNAc(b1-4)GlcNAc
# In short: as §1
# [9] = target: Fuc(a1-2)[Gal(a1-3)]Gal(b1-4)GlcNAc(b1-2)Man(a1-3)[Fuc(a1-2)[Gal(a1-3)]Gal(b1-4)GlcNAc(b1-2)Man(a1-6)]Man(b1-4)GlcNAc(b1-4)[Fuc(a1-6)]GlcNAc
# In short: as §1
# [10] = target: Fuc(a1-2)[Gal(a1-3)]Gal(b1-4)GlcNAc(b1-3)GalNAc
# In short: as §1
# [11] = target: Fuc(a1-2)[Gal(a1-3)]Gal(b1-4)GlcNAc(b1-3)[Fuc(a1-2)[Gal(a1-3)]Gal(b1-4)GlcNAc(b1-6)]GalNAc
# In short: as §1
# [12] = target: Fuc(a1-2)[Gal(a1-3)]Gal(b1-4)GlcNAc(b1-6)GalNAc
# In short: as §1
# [13] = target: Fuc(a1-2)[Gal(a1-3)]Gal(b1-4)[Fuc(a1-3)]Glc
# In short: as §1
# [14] = target: Fuc(a1-2)[Gal(a1-3)]Gal(b1-4)[Fuc(a1-3)]GlcNAc
# In short: as §1
# [15] = target: Fuc(a1-2)[Gal(a1-3)]Gal(b1-4)[Fuc(a1-3)]GlcNAc(b1-3)GalNAc
# In short: as §1
# [16] = target: Fuc(a1-2)[Gal(a1-4)]Gal(b1-4)GlcNAc
# In short: as §1
# [17] = target: Fuc(a1-2)[GalNAc(a1-3)]Gal
# In short: as §1
# [18] = target: Fuc(a1-2)[GalNAc(a1-3)]Gal(b1-3)GalNAc(a1-3)[Fuc(a1-2)]Gal(b1-4)GlcNAc
# In short: as §1
# [19] = target: Fuc(a1-2)[GalNAc(a1-3)]Gal(b1-3)GalNAc(b1-3)Gal(a1-4)Gal(b1-4)Glc
# In short: as §1
# [20] = target: Fuc(a1-2)[GalNAc(a1-3)]Gal(b1-3)GlcNAc
# In short: as §1
# [21] = target: Fuc(a1-2)[GalNAc(a1-3)]Gal(b1-3)GlcNAc(b1-2)Man(a1-3)[Fuc(a1-2)[GalNAc(a1-3)]Gal(b1-3)GlcNAc(b1-2)Man(a1-6)]Man(b1-4)GlcNAc(b1-4)GlcNAc
# In short: as §1
# [22] = target: Fuc(a1-2)[GalNAc(a1-3)]Gal(b1-3)GlcNAc(b1-2)Man(a1-3)[Fuc(a1-2)[GalNAc(a1-3)]Gal(b1-3)GlcNAc(b1-2)Man(a1-6)]Man(b1-4)GlcNAc(b1-4)[Fuc(a1-6)]GlcNAc
# In short: as §1
# [23] = target: Fuc(a1-2)[GalNAc(a1-3)]Gal(b1-3)GlcNAc(b1-3)GalNAc
# In short: as §1
binder,measurement,setting,value
B1,glycan array binding signal (z-score),[1],0.356
same,glycan array binding signal (z-score),[2],0.41
same,glycan array binding signal (z-score),[3],-0.242
same,glycan array binding signal (z-score),[4],-0.159
same,glycan array binding signal (z-score),[5],1.5
same,glycan array binding signal (z-score),[6],-0.045
same,glycan array binding signal (z-score),[7],-0.874
same,glycan array binding signal (z-score),[8],2.45
same,glycan array binding signal (z-score),[9],-0.294
same,glycan array binding signal (z-score),[10],1.13
same,glycan array binding signal (z-score),[11],0.811
same,glycan array binding signal (z-score),[12],0.108
same,glycan array binding signal (z-score),[13],1.5
same,glycan array binding signal (z-score),[14],0.126
same,glycan array binding signal (z-score),[15],-1.29
same,glycan array binding signal (z-score),[16],0.301
same,glycan array binding signal (z-score),[17],-0.528
same,glycan array binding signal (z-score),[18],-0.35
same,glycan array binding signal (z-score),[19],2.28
same,glycan array binding signal (z-score),[20],-0.308
same,glycan array binding signal (z-score),[21],0.594
same,glycan array binding signal (z-score),[22],-0.338
same,glycan array binding signal (z-score),[23],-0.128

# Fetched one by one from the list above:
binder,measurement,setting,value
B1,glycan array binding signal (z-score),[16],0.301
same,glycan array binding signal (z-score),[7],-0.874
